Laboratory results taken from publication PMC6642535.
These are yes or no findings as the source states them, for the method shown. Binding seen in cells or lysates may run through a third protein. These calls come from enrichment with a bait or labelling near it, and not all partners need be listed.

Sequences of proteins named here, by UniProt entry; tags and fusion partners are left off.
UniProt O60678: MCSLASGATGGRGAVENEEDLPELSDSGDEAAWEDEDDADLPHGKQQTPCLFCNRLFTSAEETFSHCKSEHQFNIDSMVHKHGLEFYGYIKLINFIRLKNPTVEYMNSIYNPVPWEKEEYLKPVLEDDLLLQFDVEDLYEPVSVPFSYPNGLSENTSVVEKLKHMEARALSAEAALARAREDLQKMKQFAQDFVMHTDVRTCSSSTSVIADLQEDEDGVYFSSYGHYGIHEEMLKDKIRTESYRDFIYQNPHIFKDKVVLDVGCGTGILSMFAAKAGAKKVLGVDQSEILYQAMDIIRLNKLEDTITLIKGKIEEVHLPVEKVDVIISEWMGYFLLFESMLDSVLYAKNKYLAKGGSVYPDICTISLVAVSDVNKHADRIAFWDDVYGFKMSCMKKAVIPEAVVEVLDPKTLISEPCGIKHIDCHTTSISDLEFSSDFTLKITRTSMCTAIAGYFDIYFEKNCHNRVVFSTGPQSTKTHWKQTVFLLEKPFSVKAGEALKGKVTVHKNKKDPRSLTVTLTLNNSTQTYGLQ
UniProt P04406: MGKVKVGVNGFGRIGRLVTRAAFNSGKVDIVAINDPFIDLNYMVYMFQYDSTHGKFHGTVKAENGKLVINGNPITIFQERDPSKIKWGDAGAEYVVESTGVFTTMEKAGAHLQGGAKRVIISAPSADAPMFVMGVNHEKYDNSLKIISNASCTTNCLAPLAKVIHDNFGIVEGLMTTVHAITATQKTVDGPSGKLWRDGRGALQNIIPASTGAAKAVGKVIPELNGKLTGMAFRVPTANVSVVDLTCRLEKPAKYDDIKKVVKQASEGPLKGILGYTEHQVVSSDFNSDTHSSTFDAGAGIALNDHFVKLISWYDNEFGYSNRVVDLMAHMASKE

Target: Green fluorescent protein (GFP)-tagged PRMT3 (protein arginine methyltransferase 3) (UniProt O60678)
Assay: affinity purification with mass spectrometry; GFP-PRMT3 immunoprecipitated with GFP antibody from GFP-PRMT3-overexpressing PANC-1 cells; in-solution trypsin digestion; mass spectrometry

| binding | Substance |
| --- | --- |
| binds | glucose-6-phosphate isomerase (G6PI) (from UniProt P06744 1-558) (enzyme) |
| binds | glyceraldehyde-3-phosphate dehydrogenase (GAPDH), endogenous (from UniProt P04406 1-335) (enzyme) |
